Here are results for one substance from PMC8939493.

By UniProt entry, the sequences of proteins in these tests, tags left out.
UniProt P42224: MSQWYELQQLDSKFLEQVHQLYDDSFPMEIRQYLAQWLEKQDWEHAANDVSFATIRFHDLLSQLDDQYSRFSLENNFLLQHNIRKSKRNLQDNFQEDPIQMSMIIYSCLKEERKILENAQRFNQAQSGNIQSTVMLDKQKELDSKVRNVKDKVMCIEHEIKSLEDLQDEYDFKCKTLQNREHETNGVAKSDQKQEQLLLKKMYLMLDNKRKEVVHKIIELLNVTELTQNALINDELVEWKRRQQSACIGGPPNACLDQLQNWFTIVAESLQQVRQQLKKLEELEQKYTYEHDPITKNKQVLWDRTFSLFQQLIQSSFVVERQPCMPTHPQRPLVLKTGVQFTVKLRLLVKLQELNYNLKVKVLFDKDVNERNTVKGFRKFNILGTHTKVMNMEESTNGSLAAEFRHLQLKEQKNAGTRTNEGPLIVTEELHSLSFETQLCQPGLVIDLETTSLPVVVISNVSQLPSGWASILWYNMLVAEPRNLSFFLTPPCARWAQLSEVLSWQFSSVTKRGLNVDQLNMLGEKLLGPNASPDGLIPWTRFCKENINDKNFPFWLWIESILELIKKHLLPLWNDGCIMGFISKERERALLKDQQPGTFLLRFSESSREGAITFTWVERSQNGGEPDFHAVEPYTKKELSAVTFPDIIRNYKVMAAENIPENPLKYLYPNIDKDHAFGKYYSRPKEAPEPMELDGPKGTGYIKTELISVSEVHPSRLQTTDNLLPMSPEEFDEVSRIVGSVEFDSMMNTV

These are yes or no findings as the source states them, for the method shown. Binding seen in cells or lysates may run through a third protein. Some results given as binding are weak or reduced against the parent protein; the word gives no strength.

In this assay the target is STAT1 (UniProt P42224). Put plainly: co-IP.

For the substance “SARS-CoV-2 NSP13 helicase, V5-tagged (from UniProt P0DTD1 5325-5925) (enzyme)”, the binding result is given as “binds”.
